Laboratory results published in US20200093922A1 (AGENCY FOR SCIENCE TECHNOLOGY AND RESEARCH, published 2020).
These are yes or no findings as the source states them, for the method shown. Some entries that bind do so weakly or less than the wild type. One block for each binder: values may come before it.

Chains of the proteins cited; added tags and fusions are not shown. Lines headed by an entry give the natural chain unless they say otherwise; changes in a name come on top. A line that says so, or that is headed by a name, gives the form on record, which may keep a tag or linker. Residues count along the entry.
UniProt Q9NZQ7: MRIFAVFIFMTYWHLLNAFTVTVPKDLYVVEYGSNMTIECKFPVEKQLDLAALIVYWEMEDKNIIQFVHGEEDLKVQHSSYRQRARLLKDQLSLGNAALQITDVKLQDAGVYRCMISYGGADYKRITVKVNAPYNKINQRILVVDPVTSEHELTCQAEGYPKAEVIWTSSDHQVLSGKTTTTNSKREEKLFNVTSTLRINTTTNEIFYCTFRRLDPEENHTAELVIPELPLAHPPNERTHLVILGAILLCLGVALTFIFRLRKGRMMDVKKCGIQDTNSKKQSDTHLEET
human PD-L1 expressed on transfected HEK 293 cells: residues 19-290 of Q9NZQ7
UniProt Q9EP73: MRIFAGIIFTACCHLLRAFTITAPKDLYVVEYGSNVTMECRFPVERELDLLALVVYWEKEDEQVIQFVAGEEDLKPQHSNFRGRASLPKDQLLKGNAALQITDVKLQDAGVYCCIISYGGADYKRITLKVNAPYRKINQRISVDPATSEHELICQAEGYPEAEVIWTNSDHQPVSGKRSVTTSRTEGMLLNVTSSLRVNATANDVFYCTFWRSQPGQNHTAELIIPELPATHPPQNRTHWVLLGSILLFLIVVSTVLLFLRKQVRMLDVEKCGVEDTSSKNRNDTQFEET
cynomolgus PD-L1 (G7PSE7, form named): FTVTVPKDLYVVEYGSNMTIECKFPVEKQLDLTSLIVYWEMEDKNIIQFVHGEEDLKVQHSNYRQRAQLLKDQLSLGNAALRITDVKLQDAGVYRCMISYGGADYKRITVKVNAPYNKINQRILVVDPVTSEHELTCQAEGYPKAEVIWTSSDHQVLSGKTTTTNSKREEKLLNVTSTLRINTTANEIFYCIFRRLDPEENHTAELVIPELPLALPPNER

How the values were obtained:
biotinylated human PD-L1 [1] = target: T1, biotinylated human PD-L1 (human, UniProt Q9NZQ7 19-238, limits assumed, biotinylated (site not stated)); assay: avidity ELISA: biotinylated human PD-L1 on neutravidin, antibody titrated, anti-human Fc-HRP (FIG. 19B)
[2] = target: PD-L1 on MDA-MB-231 human breast cancer cells (human) (UniProt Q9NZQ7); assay: flow cytometry on MDA-MB-231 cells (FIG. 20)
biotinylated human PD-L1 [3] = target: T1, biotinylated human PD-L1; assay: ELISA: antibody coated, biotinylated human PD-L1 titrated, streptavidin-HRP (FIG. 19A)
[4] = target: human PD-L1 expressed on transfected HEK 293 cells (human) (UniProt Q9NZQ7); assay: flow cytometry blocking assay: antibody mixed with human PD-1-PE (blocked partner), added to HEK293 cells transfected with human PD-L1
[5] = target: PD-L1 on MDA-MB-231 human breast cancer cells (human) (UniProt Q9NZQ7); assay: flow cytometry on MDA-MB-231 cells expressing PD-L1, MFI against IgG1 (nM)
[6] = target: biotinylated murine PD-L1 (murine, UniProt Q9EP73 19-238, limits assumed, biotinylated (site not stated)); assay: blocking ELISA of murine PD-L1 binding to murine PD-1 (blocked partner), Example 3
[7] = target: PD-L1 (blocking ELISA of Example 13) (Homo sapiens (Human)) (UniProt Q9NZQ7); assay: blocking ELISA: antibody pre-incubated with PD-L1, added to coated PD-1 (blocked partner), PD-1-bound PD-L1 detected
biotinylated human PD-L1 [8] = target: T1, biotinylated human PD-L1; assay: avidity ELISA: biotinylated human PD-L1 at 0.2 ug/mL on neutravidin, antibody titrated (x axis IgG, nM), anti-human Fc-HRP
Experimental: Neutravidin was coated onto maxisorp plates at 2 μg/mL in coating buffer and incubated overnight at 4° C. The next day, plates were washed with wash buffer (PBS+0.05% Tween-20), and blocker with casein for 1 hour, at room temperature. Plates were then washed again using wash buffer. […] Plates were then washed again using wash buffer. The different antibodies were then added at various concentrations, and incubated for 1 hour at room temperature. Plates were then washed again using wash buffer. Anti-human Fc-HRP was then added and incubated for 1 hour at room temperature. Plates were then washed again using wash buffer. Finally, TMB was added to develop the ELISA; TMB conversion by HRP was stopped using 1M H-Cl.

[9] = target: cynomolgus PD-L1 (cynomolgus) (UniProt G7PSE7); assay: ELISA on coated antigen (sheet label cyPD-L1-Fc)
[10] = target: mouse PD-L1 (ELISA antigen of Example 8, construct not stated) (mouse) (UniProt Q9EP73); assay: ELISA on coated antigen (sheet label moPD-L1-Fc)
[11] = target: cynomolgus PD-L1 (cynomolgus) (UniProt G7PSE7); assay: ELISA on different antigens (FIG. 15)
[12] = target: human PD-L1 (ELISA antigen, construct not stated) (human) (UniProt Q9NZQ7); assay: ELISA on different antigens (FIG. 15)
[13] = target: mouse PD-L1 (ELISA antigen of Example 8, construct not stated) (mouse) (UniProt Q9EP73); assay: ELISA on different antigens (FIG. 15)
biotinylated human PD-L1 [14] = target: T1, biotinylated human PD-L1; assay: ELISA: antibody coated at 2 ug/mL, biotinylated human PD-L1 titrated (x axis Human PD-L1, nM), streptavidin-HRP
Experimental: Binding was measured by ELISA. Antibodies were coated onto maxisorp plates at 2 μg/mL in coating buffer and incubated overnight at 4° C. The next day, plates were washed with wash buffer (PBS+0.05% Tween-20), and blocker with casein for 1 hour, at room temperature. Plates were then washed again using wash buffer. […] Plates were then washed again using wash buffer. […] Plates were then washed again using wash buffer. Finally, TMB was added to develop the ELISA; TMB conversion by HRP was stopped using 1M H-Cl.

[15] = target: human PD-L1 (ELISA antigen, construct not stated) (human) (UniProt Q9NZQ7); assay: ELISA on coated antigen (sheet label huPD-L1-Fc)
[16] = target: mouse PD-L1 (ELISA antigen of Example 8, construct not stated) (mouse) (UniProt Q9EP73); assay: recap of earlier binding results in Example 11

B1: anti-PD-L1 antibody H12 in IgG1 format (antibody, V domains shown)
VH: EVQLVQSGAEVKKPGASVKVSCKASGGTFSSYAISWVRQAPGQGLEWMGRIIPILGIANYAQKFQGRVTITADKSTSTAYMELSSLRSEDTAVYYCARSGHGYSYGAFDYWGQGTL
VL: QSVLTQPPSVSGAPGQRVTISCTGSSSNIGAGYDVHWYQQLPGTAPKLLIYGNSNRPSGVPDRFSGSKSGTSASLAITGLQAEDEADYYCQSYDSSLSGSYVVFGGGTKLTVL
notes: IgG1; also called H12 (IgG1); H12-IgG1
binding (biotinylated human PD-L1 [1]): binds | binding [2]: binds | binding (biotinylated human PD-L1 [3]): binds | binding [4]: binds | binding [5]: binds | binding [6]: binds

B3: anti-PD-L1 antibody H12 in IgG4 format (antibody, V domains shown)
VH: B1 VH
VL: B1 VL
notes: IgG4; also called H12-IgG4
binding [4]: binds

More lines, now with the values ahead:

binding [7]: binds | binding (biotinylated human PD-L1 [8]): binds | binding [9]: binds | binding [10]: binds | binding [11]: binds | binding [12]: binds | binding [13]: binds | binding (biotinylated human PD-L1 [14]): binds | binding [15]: binds | binding [16]: binds
B2: anti-PD-L1 antibody H12 (format not stated) (antibody, V domains shown)
VH: B1 VH
VL: B1 VL

binding [7]: binds
B4: anti-PD-L1 antibody C4 (format not stated) (antibody, V domains shown)
VH: QVQLQQSGAEVKKPGSSVKVSCKASGGTFSSYAISWVRQAPGQGLEWMGRIIPILGIANYAQKFQGRVTITADKSTSTAYMELSSLRSEDTAVYYCARGGYGGNSLYAFDIWGQGTMVTVSS
VL: QSVVTQPPSVSAAPGQKVTISCSGSSSNIGNNYVSWYQQLPGTAPKLLIYDNNERLSGIPDRFSGSKSGTSATLGISGLQTGDEADYYCGTWDSSLSVVVFGGGTKLTVL
